Five targets from the supplement of paper PMC10849652 can be followed below.

Chains of the proteins cited; added tags and fusions are not shown. Lines headed by an entry give the natural chain unless they say otherwise; changes in a name come on top.
UniProt Q9NTZ6: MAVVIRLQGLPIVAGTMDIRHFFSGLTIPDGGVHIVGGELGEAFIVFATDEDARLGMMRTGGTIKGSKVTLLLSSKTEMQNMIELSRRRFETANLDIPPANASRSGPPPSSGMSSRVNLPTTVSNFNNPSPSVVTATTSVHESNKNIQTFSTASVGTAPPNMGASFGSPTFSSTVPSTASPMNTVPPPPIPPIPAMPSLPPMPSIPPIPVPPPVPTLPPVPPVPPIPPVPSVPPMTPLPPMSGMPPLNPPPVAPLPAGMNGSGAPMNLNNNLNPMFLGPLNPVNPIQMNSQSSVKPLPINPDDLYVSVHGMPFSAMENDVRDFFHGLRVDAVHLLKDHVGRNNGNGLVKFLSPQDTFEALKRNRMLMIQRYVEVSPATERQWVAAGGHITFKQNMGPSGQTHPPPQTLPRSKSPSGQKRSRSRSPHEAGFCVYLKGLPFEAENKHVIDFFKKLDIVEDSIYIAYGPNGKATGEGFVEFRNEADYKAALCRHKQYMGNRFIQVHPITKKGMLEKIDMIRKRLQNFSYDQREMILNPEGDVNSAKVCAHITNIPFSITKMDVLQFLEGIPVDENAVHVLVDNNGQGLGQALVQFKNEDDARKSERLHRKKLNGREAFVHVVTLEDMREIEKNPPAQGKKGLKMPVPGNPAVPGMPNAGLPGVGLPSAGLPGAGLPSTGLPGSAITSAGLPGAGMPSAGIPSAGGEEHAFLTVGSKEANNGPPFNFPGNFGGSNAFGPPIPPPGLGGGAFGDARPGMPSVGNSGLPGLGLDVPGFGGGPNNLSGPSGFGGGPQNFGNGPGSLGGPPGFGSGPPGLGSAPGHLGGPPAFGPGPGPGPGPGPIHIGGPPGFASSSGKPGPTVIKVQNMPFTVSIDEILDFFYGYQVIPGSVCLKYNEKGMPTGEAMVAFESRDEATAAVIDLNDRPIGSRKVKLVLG
UniProt Q5T8P6: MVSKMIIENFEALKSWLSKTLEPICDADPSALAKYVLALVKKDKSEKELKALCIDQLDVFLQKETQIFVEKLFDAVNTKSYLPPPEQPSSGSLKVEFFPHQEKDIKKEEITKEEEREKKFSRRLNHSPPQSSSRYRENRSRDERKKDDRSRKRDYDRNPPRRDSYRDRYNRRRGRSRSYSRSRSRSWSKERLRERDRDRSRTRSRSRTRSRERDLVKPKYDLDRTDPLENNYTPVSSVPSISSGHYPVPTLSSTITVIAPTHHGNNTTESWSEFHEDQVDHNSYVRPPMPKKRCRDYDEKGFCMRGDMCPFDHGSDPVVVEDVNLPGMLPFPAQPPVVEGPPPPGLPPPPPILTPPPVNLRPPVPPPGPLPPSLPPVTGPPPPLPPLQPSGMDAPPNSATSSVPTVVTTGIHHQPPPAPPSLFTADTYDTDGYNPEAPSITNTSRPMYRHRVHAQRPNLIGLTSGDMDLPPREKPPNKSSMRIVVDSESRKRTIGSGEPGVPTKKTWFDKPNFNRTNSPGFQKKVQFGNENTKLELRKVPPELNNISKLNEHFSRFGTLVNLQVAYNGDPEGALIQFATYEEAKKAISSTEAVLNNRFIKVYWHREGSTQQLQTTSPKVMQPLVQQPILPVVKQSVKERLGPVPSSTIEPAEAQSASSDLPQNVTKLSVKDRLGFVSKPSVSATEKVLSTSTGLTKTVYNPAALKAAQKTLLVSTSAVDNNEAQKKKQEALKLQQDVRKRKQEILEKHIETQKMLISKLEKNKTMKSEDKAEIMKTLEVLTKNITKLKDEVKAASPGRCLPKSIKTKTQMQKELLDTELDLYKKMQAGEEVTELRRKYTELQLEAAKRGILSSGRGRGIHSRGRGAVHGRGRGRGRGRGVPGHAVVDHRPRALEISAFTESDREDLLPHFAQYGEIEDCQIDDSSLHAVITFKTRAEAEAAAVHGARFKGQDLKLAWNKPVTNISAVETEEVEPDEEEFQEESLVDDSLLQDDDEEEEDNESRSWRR
UniProt Q02094: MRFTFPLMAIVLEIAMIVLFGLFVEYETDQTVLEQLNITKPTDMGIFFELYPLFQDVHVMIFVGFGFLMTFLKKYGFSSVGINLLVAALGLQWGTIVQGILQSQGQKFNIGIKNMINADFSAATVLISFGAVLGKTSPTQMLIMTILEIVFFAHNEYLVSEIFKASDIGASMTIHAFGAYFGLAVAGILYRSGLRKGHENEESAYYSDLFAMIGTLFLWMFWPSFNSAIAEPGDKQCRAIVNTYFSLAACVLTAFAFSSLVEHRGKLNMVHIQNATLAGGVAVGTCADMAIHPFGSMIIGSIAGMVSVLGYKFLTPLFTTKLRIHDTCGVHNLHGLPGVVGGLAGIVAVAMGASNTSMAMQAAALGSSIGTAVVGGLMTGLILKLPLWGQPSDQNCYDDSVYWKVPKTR
UniProt Q5TC82: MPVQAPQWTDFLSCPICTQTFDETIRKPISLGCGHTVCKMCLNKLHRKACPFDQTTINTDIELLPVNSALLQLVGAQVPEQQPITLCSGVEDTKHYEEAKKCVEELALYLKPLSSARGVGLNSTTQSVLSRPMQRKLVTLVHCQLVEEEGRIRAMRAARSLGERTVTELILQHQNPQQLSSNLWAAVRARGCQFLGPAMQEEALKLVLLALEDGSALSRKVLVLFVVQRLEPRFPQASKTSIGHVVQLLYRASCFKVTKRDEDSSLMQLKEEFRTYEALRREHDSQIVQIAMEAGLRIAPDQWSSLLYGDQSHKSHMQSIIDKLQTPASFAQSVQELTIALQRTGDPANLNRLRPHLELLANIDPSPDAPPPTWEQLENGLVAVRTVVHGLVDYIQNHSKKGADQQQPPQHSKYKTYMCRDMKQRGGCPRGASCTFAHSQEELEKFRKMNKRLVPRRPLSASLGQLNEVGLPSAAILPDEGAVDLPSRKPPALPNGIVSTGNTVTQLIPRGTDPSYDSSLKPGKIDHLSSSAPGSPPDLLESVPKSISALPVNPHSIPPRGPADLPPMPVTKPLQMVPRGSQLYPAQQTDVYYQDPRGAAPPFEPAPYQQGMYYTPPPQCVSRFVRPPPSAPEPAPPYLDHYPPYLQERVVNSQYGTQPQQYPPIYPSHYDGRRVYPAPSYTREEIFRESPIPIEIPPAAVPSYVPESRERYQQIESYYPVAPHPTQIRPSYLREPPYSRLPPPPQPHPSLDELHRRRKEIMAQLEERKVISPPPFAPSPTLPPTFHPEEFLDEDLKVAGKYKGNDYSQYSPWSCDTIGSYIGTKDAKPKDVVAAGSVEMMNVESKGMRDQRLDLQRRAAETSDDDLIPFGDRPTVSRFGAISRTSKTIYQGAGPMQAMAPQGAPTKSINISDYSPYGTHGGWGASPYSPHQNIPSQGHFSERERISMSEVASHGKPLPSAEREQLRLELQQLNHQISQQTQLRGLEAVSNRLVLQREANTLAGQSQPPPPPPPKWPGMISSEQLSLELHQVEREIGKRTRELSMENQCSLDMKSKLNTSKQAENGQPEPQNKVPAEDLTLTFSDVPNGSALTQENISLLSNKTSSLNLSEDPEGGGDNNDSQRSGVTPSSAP

This is one part of the list.

Compound in this assay: c1ccc([C@@H]2C[C@H]2NC2CCNCC2)cc1
As to the kind of experiment: log2 fold change, soluble protein after heating vs DMSO (PISA); higher = thermal stabilisation; K562 lysate, 10 uM; active = over 0.2 and 3.5 SD of the protein, either way, in both replicates (recomputed). The essentials: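 Soluble protein was defined as the supernatant remaining after 21,000xg for 90 min, following pooling of heated aliquots and adjustment to 0.5% NP-40 at 4°C. Before that, crude K562 extract at 1 mg/mL protein in PBS pH 7.4 with 1 mM MgCl2 was treated with 10 μM compound for 30 min and heated for 3 min across 48°C-58°C. Quantification used TMTpro 16plex LC-MS/MS with channel sums equalised, and values are log-two fold changes in thermal stability relative to solvent controls from duplicates.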
For RBM12 (UniProt Q9NTZ6), the log2 fold change is inactive: 0.013.
To RBM26 isoform 2 (UniProt Q5T8P6) belongs inactive: 0.084; to RHAG (UniProt Q02094), inactive: -0.143; to RC3H1 (UniProt Q5TC82), inactive: -0.024.
With RCOR3 isoform 3 (UniProt Q9P2K3) the figure was active: 0.394.
